{"sequences": {"note": "Amino acid sequences for entries named in this document (tags omitted). Residues count along the entry.", "UniProt P27037, residues 191-488": "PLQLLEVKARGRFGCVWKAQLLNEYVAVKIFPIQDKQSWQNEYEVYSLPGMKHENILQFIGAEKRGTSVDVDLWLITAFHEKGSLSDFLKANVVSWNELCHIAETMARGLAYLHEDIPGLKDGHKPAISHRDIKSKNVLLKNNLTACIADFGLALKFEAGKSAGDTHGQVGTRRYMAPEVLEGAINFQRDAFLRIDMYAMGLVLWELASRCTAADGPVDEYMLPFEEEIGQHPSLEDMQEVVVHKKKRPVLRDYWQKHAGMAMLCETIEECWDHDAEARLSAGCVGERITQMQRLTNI", "UniProt P68106": "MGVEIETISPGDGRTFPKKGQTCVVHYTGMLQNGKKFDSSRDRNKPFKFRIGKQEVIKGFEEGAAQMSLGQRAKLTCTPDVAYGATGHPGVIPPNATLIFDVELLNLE"}, "source": "paper PMC7911104", "key": {"[1]": {"target": "ActRIIA (ACVR2A) intracellular domain, residues 191-488 (human) (UniProt P27037)", "assay": "SEC-MALS; Shodex KW-803 column; proteins at 5 mg/mL in 50 mM HEPES pH 7.5, 300 mM NaCl, 0.5 mM TCEP; 0.5 mL/min; receptor domains alone and mixed with FKBP12.6; both purified"}, "[2]": {"target": "T1, FLAG-tagged full-length ALK2 (human) (UniProt Q04771)", "T1 sequence": "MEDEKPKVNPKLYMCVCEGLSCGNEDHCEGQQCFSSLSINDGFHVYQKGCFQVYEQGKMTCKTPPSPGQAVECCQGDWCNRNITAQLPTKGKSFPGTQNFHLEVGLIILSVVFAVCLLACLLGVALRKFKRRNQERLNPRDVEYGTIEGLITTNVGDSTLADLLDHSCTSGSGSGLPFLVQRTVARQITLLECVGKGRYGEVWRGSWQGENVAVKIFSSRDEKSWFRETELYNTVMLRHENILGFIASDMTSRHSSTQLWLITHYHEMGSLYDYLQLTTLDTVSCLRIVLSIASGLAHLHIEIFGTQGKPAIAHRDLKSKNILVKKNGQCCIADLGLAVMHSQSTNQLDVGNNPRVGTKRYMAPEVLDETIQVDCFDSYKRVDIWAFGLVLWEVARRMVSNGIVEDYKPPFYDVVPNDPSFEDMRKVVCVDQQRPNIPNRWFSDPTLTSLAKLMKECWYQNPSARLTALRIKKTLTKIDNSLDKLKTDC", "assay": "co-IP; MDA-MB-231 cells co-transfected with FLAG-tagged ALK2 and GFP-tagged FKBP12 or FKBP12.6; 1 mg lysate (20 mM Tris-HCl pH 7.5, 150 mM NaCl, 25 mM NaF, 0.1% Triton X-100) on anti-FLAG M2 beads, 2 h at 4 °C; blot with anti-GFP"}}, "note": "These are yes or no findings as the source states them, for the method shown. For some assays here: In cells and extracts the contact can be indirect. Some entries that bind do so weakly or less than the wild type. For some assays here: Where a sequence is shown, tags or fusion partners need not be part of it.", "data": [{"substance": "FKBP12.6 (FKBP1B), full length, recombinant (from UniProt P68106 1-108)", "values": [{"measurement": "binding", "setting": "[1]", "value": "no binding (tested: 5 mg/mL)"}]}, {"substance": "GFP-tagged full-length FKBP12.6 (from UniProt P68106 1-108)", "values": [{"measurement": "binding", "setting": "[2]", "value": "binds"}]}]}
